Data reported in patent publication US11912787B2 (DERMAFIRM, INC., priority 2019, dated 2024).
HELM strings list residues between dots; [ac] is acetyl, [am] amide, other brackets name non-standard units.

Assay: general procedure: Fmoc solid-phase peptide synthesis; 2-chlorotrityl chloride resin (BeadTech, 1% DVB crosslinked, 100 to 200 mesh, 1.41 mmol/g)
Details: whole synthesis; for final HPLC purity / isolated yield: scale of the general procedure 10 mmol

| Substance | isolated mass [g] | final HPLC purity [%] | isolated yield [%] |
| --- | --- | --- | --- |
| H-ArgArgArgArg-OH | 1.7 | 99.1 | 26.6 |
| PEPTIDE1{G.H.K.R.R.R.R}$$$$V2.0 | 3.6 | 99.2 | 37.3 |
| PEPTIDE1{[Pal].G.H.K.R.R.R.R}$$$$V2.0 | 3.4 | 99.5 | 28.2 |
